# PubChem BioAssay AID1224830 – NIAID | 2016
# Purpose: 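Regulators of TLR4 signalling towards TNF-alpha in macrophage-like cells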 (primary screen)
# System: human THP-1 monocytic leukaemia cells, TNF dual-luciferase reporter clone, PMA-differentiated to macrophage-like cells
# Knock-down reagent: siRNA pool against human genes, 50 nM
# Time to read-out: LPS for 4 h, given about 3 days after siRNA transfection
# Conditions: bacterial LPS (TLR4 ligand), 10 ng/ml
# Measurement: 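Ratio of firefly to renilla light, scaled to the plate median and expressed as a robust z-score per replicate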
# Reading the numbers: TNF reporter robust z-score: higher = stronger TNF reporter response to LPS
# Active means: 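Each well counts as active if its z-score is over 2.8 or under -1.5; controls are left without a call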
# In all, the deposit lists about 18,000 reagents; this is a random part of them. About 2,900 of them (16%) were called active. 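Calls are made per well; low scores hint the gene aids the LPS response, high scores that it dampens it.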 Unmarked entries are inactive. Repeated entries: four replicate wells of each siRNA pool.
gene,TNF reporter robust z-score
SERPINA13P,-0.95
SERPINA13P,-0.6
SERPINA13P,-0.26
SERPINA13P,-0.77
MRPL54,-0.27
MRPL54,-0.3
MRPL54,-0.53
MRPL54,-0.73
ANKRD39,-0.25
ANKRD39,-0.95
ANKRD39,-0.69
ANKRD39,0.04
AREL1,0.02
AREL1,0.43
AREL1,1.01
AREL1,1
NT5C2,-0.52
NT5C2,-0.62
NT5C2,-0.77
NT5C2,-0.42
TSNARE1,-0.97
TSNARE1,0.21
TSNARE1,-1
TSNARE1,-0.4
DOCK3,-0.81
DOCK3,-1.06
DOCK3,-0.18
DOCK3,-0.16
TSLP,-0.58
TSLP,-0.45
TSLP,-0.86
DGKG,-0.59
DGKG,-0.16
DGKG,-0.2
DGKG,-0.29
OR10X1,0.98
OR10X1,0.97
OR10X1,0.31
OR10X1,1.11
PRSS16,-1.16
PRSS16,1.59
PRSS16,-0.68
PRSS16,-0.86
CFL2,-1.38
CFL2,-0.69
CFL2,-1.19
CFL2,-0.96
ZNF551,-1.29
ZNF551,-1.87 (active)
ZNF551,-0.48
ZNF551,-1.6 (active)
KRTAP9-4,0.37
KRTAP9-4,3.01 (active)
KRTAP9-4,2.75
KRTAP9-4,2.33
ARHGEF11,1.08
ARHGEF11,0.68
ARHGEF11,1.16
ARHGEF11,1.04
RAB25,-0.75
RAB25,-0.41
RAB25,-0.87
RAB25,-0.28
DDX6,-0.43
DDX6,-1.08
DDX6,-0.75
DDX6,-0.87
SDHAF2,-0.32
SDHAF2,0.44
SDHAF2,-0.47
SDHAF2,-0.8
CD99L2,-0.66
CD99L2,-0.98
CD99L2,-0.74
CD99L2,-0.76

Called active (from the list above):
gene,TNF reporter robust z-score
ZNF551,-1.87 (active)
ZNF551,-1.6 (active)
KRTAP9-4,3.01 (active)
